Publication PMC6487834
Results are given in words; binding and its absence hold for the method and conditions named. In cells and extracts the contact can be indirect. Some results given as binding are weak or reduced against the parent protein; the word gives no strength. Where a sequence is shown, tags or fusion partners need not be part of it.

Columns and labels:
[1] = molecular target: T1, U2AF56 Associated Protein 56 (UAP56a/b), endogenous (Arabidopsis thaliana (endogenous in flowers)) (UniProt Q56XG6); assay: co-IP; anti-UAP56 serum (1/500 or 1/1000) with Protein G Dynabeads on pDRM2-DRM2-FLAG-HA flower extract in EB150 buffer, 4 °C; DRM2 detected with anti-HA-HRP
T1 sequence: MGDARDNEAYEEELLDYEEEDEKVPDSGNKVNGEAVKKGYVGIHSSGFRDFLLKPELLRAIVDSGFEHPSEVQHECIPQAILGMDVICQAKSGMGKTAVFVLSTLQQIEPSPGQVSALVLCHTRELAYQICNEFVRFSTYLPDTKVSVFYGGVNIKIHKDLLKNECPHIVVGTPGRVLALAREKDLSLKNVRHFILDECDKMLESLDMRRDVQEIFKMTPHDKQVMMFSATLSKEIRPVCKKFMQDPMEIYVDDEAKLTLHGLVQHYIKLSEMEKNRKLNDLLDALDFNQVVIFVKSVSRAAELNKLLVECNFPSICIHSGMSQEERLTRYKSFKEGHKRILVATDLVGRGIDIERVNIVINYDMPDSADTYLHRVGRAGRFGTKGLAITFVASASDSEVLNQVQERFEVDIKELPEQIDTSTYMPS

[2] = molecular target: T2, GST–UAP56 recombinant protein (Arabidopsis thaliana) (UniProt Q56XG6); assay: pull-down; 60 µg purified GST–UAP56 immobilised on glutathione Sepharose 4B, EB150 buffer (50 mM Tris/HCl pH 7.5, 150 mM NaCl, 5 mM MgCl2, 0.1% NP40), pDRM2-DRM2-FLAG-HA flower whole-cell extract, 3 h at 4 °C, eluted with 10 mM reduced glutathione, anti-HA blot; only the target purified
T2 sequence: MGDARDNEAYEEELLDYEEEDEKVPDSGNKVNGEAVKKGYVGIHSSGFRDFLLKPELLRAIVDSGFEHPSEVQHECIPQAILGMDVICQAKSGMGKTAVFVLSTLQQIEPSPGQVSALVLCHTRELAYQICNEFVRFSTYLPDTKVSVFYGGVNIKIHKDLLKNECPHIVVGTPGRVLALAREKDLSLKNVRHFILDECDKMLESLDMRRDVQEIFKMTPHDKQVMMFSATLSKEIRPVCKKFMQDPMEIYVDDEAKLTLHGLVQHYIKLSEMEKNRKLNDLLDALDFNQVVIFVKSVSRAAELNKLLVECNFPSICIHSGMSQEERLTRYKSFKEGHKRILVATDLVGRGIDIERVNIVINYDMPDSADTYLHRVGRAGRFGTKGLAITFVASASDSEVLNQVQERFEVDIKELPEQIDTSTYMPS

binding [1]: binds
binding [2]: binds
B1: DRM2-FLAG-HA (pDRM2-DRM2-FLAG-HA in drm1drm2) (enzyme, UniProt Q9M548 1-626)
chain: MVIWNNDDDDFLEIDNFQSSPRSSPIHAMQCRVENLAGVAVTTSSLSSPTETTDLVQMGFSDEVFATLFDMGFPVEMISRAIKETGPNVETSVIIDTISKYSSDCEAGSSKSKAIDHFLAMGFDEEKVVKAIQEHGEDNMEAIANALLSCPEAKKLPAAVEEEDGIDWSSSDDDTNYTDMLNSDDEKDPNSNENGSKIRSLVKMGFSELEASLAVERCGENVDIAELTDFLCAAQMAREFSEFYTEHEEQKPRHNIKKRRFESKGEPRSSVDDEPIRLPNPMIGFGVPNEPGLITHRSLPELARGPPFFYYENVALTPKGVWETISRHLFEIPPEFVDSKYFCVAARKRGYIHNLPINNRFQIQPPPKYTIHDAFPLSKRWWPEWDKRTKLNCILTCTGSAQLTNRIRVALEPYNEEPEPPKHVQRYVIDQCKKWNLVWVGKNKAAPLEPDEMESILGFPKNHTRGGGMSRTERFKSLGNSFQVDTVAYHLSVLKPIFPHGINVLSLFTGIGGGEVALHRLQIKMKLVVSVEISKVNRNILKDFWEQTNQTGELIEFSDIQHLTNDTIEGLMEKYGGFDLVIGGSPCNNLAGGNRVSRVGLEGDQSSLFFEYCRILEVVRARMRGS
